Hit rate of the full screen: of about 220,000 compounds, about 2,400 (1.1%) were called active. The inconclusive results got no clear call from the source; some entries with a clear call stand among them for comparison. The call rests on the fitted dose curve; in most records, active means well fitted inhibition curve with a large enough effect; inconclusive means small, poorly fitted or top-dose-only effect, or effect the other way; inactive means no such curve, though single readings can be large or run the other way. Potencies beside an inconclusive call are fits to weak or partial responses and may not hold up.
Experiment: qHTS Multiplex Assay to Identify Dual Action Probes in a Cell Model of Huntington: Aggregate Formation (GFP); further: nearly all actives have a fitted effect of over 60% in size
Conditions: PC12 HttQ103-GFP aggregates, Acumen cytometry, 40 h; activity change, negative = inhibition: at 46.1 µM (top of the series) unless noted
In short: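 Aggregates are detected as GFP objects 1–25 µm with signal 6 STDEV over background in lysates of induced PC12 cells. These carry Huntingtin exon 1 with 103 glutamines fused to GFP under an ecdysone promoter; compounds titrated.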
On the % scale 0 is the no-effect control and ±100 the full control effect; potency means the concentration at half of the fitted maximal effect.

| SMILES | activity change, negative = inhibition | Potency |
| --- | --- | --- |
| COC(=O)c1cc(-c2ccccc2)sc1NC(=O)c1cc(C)on1 | inactive: -9.43% | – |
| Cc1ccc(C)c(NC(=S)N(Cc2ccc(Cl)cc2)Cc2ccc(C(=O)O)cc2)c1 | – | inconclusive: 20 µM [inhibitor, single point] |
| Cc1cc(C)n(-c2nnc(C)n2/N=C/c2cc(Br)ccc2OCc2ccccc2)n1 | – | inconclusive: 35.5 µM [inhibitor, single point] |
| O=C(CCc1ccccc1)Nc1ccc(S(=O)(=O)N2CCOCC2)cc1 | – | inconclusive: 5.62 µM [activator, single point] |
| Cc1c2cnn(CC(=O)Nc3c(F)c(F)cc(F)c3F)c(=O)c2c(C)n1Cc1ccccc1F | inactive: -13% | – |
| Cc1cc(C)c2c(=O)c(C#N)coc2c1 | inactive: 5.07% [at 9.22 µM] | – |
| CCc1cccc(NC(=O)CSC2=NS(=O)(=O)c3ccccc32)c1 | inactive: -11.2% | – |
| Cc1ccc([N+](=O)[O-])cc1NC(=O)c1ccc(C(C)(C)C)cc1 | – | inconclusive: 35.5 µM [inhibitor, single point] |
| Cc1cc(NC(=O)Cc2csc(-c3ccccc3)n2)ccc1Br | – | inconclusive: 14.1 µM [inhibitor, partial curve] |
| C=CCOc1ccc(C=Nc2ccc(C)c(Cl)c2)c(O)c1 | inactive: -11.9% | – |
| COC(=O)/C(=C\c1cc(OC)c(OC)c(OC)c1)c1nc2ccccc2[nH]1 | – | inconclusive: 35.5 µM [inhibitor, single point] |
| Cc1ccc(NS(=O)(=O)c2ccc(NC(=O)C3CCCO3)cc2)cc1 (stereo unspecified) | – | inconclusive: 22.4 µM [inhibitor, single point] |
| O=C(NNC(=S)NC(=O)C12CC3CC(CC(C3)C1)C2)c1ccncc1 | – | active: 3.16 µM |
| Cc1noc(C)c1C(=O)OCC(=O)/C=C1\N(C)c2ccccc2C1(C)C | inactive: -17% | – |
| O=C1CSC(c2ccccc2F)N1c1cc(Cl)ccc1O (stereo unspecified) | inactive: 21.9% | – |
| CCC(=O)NC(Nc1ncc(C)s1)(C(=O)OC)C(F)(F)F (stereo unspecified) | – | inconclusive: 7.08 µM [inhibitor, full curve, poor fit] |
| CCOC(=O)c1c(N)sc(C(=O)N2CCOCC2)c1C | inactive: -19.1% | – |
| O=[N+]([O-])c1cccc(-c2ccc(/C=N/n3c(-c4ccccc4)n[nH]c3=S)o2)c1 | – | inconclusive: 11.2 µM [activator, partial curve] |
| CCOc1ccc(C2C(C#N)=C(N)N3C(=C2C#N)Sc2ccccc23)cc1 (stereo unspecified) | inactive: 6.99% | – |
| CCOC(=O)c1sc(NC(=O)CSc2ncccn2)c(C#N)c1C | inactive: -1.2% | – |
| Clc1cc2c(c(Cn3cnc4ccccc43)c1)OCOC2 | inactive: -11.9% | – |
| CCOc1cccc(C(=O)Nc2ccncc2)c1 | – | inconclusive: 11.2 µM [inhibitor, single point] |
| CC(C)CCNc1c(-c2cccs2)nc2ccccn12 | – | inconclusive: 5.62 µM [activator, single point] |

| SMILES | activity change, negative = inhibition | Potency |
| --- | --- | --- |
| C#CCOC(=O)Nc1cc(C)n(-c2ccccc2)n1 | inactive: -7.16% [at 9.22 µM] | – |
| COc1ccc(CSC(=N)N)cc1[N+](=O)[O-] | – | inconclusive: 35.5 µM [activator, single point] |
| O=[N+]([O-])c1ccc(Sc2nnnn2-c2ccccc2)c(Cl)c1 | – | inconclusive: 22.4 µM [activator, single point] |
| O=C(N/N=C/c1c(O)n(-c2ccc(Cl)cn2)c(=O)c2ccccc12)C1CC1 | – | inconclusive: 8.91 µM [inhibitor, partial curve] |
| COc1cc(CNc2nc(C)c([N+](=O)[O-])c(C)c2C#N)cc(OC)c1 | – | inconclusive: 25.1 µM [inhibitor, single point] |
| CCC(c1nnnn1CCc1ccccc1)N(Cc1ccco1)Cc1cc2cc(C)cc(C)c2[nH]c1=O (stereo unspecified) | – | inconclusive: 35.5 µM [inhibitor, single point] |
| CN1CCN(C2=C(NS(=O)(=O)c3cccs3)C(=O)c3ccccc3C2=O)CC1 | inactive: 24.3% [at 9.22 µM] | – |
| CC(=O)c1ccc(OCc2cccc(C(F)(F)F)c2)cc1O | – | inconclusive: 35.5 µM [inhibitor, single point] |
| Cc1cc(C(=O)COC(=O)Cc2n[nH]c(=O)c3ccccc23)c(C)n1-c1cccc(C(F)(F)F)c1 | inactive: 6.53% | – |
| CN1C(=O)N(C)C2(c3ccccc3)Nn3c(s/c(=C/c4ccco4)c3=O)=NC12c1ccccc1 (stereo unspecified) | – | inconclusive: 11.2 µM [activator, single point] |
| Cc1ccccc1NC1=CC(=O)CC(C)(C)C1 | inactive: 13.1% | – |
| CC(=O)N1N=C(c2ccccc2)OC1c1ccc([N+](=O)[O-])s1 (stereo unspecified) | – | inconclusive: 35.5 µM [inhibitor, single point] |
| CCCn1c2c(c(=N)c3c1CCC3)CCC2 | – | inconclusive: 1.26 µM [activator, single point] |
| COc1ccc(NC(=O)CSc2nc3ccccc3c(=O)n2Cc2cccs2)c(OC)c1 | – | inconclusive: 35.5 µM [inhibitor, single point] |
| CC(=O)CC(=O)Nc1cccc2c1CCCC2 | inactive: 2.66% | – |
| CCOC(=O)c1c(C)oc2c1c(C=NCCO)c(O)c1ccccc12 | – | inconclusive: 12.6 µM [inhibitor, single point] |
| COc1ccc(NC2=C(C)C(=O)CC2)cc1 | – | inconclusive: 7.94 µM [activator, partial curve] |
| COc1ccc(C(=O)CCC(=O)O)c(C)c1 | – | inconclusive: 0.562 µM [inhibitor, full curve, poor fit] |
| Cc1ccc(S(=O)(=O)N2CCCN(S(=O)(=O)c3ccc4ccccc4c3)CC2)cc1 | – | inconclusive: 11.2 µM [inhibitor, partial curve, poor fit] |
| CC(C)Cc1nnc(NC(=O)CS(=O)(=O)Cc2ccccc2)s1 | – | inconclusive: 31.6 µM [activator, single point] |
| Cc1c(C(=O)OCCOc2ccccc2)[nH]c2c1C(=O)CCC2 | – | inconclusive: 14.1 µM [inhibitor, single point] |
| COc1ccc(Sc2nnc(Cc3ccccc3)c3ccccc23)cc1 | – | inconclusive: 3.55 µM [activator, single point] |
| O=C(Nc1cccc(S(=O)(=O)N2CCCC2)c1)c1ccc2c(=O)n3c(nc2c1)CCCCC3 | – | inconclusive: 35.5 µM [inhibitor, single point] |

Quoted at random: two records from the list, in no set order.

| SMILES | activity change, negative = inhibition | Potency |
| --- | --- | --- |
| O=C(N/N=C/c1c(O)n(-c2ccc(Cl)cn2)c(=O)c2ccccc12)C1CC1 | – | inconclusive: 8.91 µM [inhibitor, partial curve] |
| COc1ccc(C(=O)CCC(=O)O)c(C)c1 | – | inconclusive: 0.562 µM [inhibitor, full curve, poor fit] |

From PubChem BioAssay AID1688 (National Center for Advancing Translational Sciences (NCATS), 2009)
